Measurements reported in publication PMC12092617.
No constants are given. Whether binding was seen depends on the method and setting. Binding seen in cells or lysates may run through a third protein. Here binding means that the protein was enriched with, or labelled near, the bait; the list need not be complete.

Target: T1, SLC25A10 (mitochondrial dicarboxylate carrier) (human (endogenous in PC-3 and 22RV1)) (UniProt Q9UBX3)
T1 sequence: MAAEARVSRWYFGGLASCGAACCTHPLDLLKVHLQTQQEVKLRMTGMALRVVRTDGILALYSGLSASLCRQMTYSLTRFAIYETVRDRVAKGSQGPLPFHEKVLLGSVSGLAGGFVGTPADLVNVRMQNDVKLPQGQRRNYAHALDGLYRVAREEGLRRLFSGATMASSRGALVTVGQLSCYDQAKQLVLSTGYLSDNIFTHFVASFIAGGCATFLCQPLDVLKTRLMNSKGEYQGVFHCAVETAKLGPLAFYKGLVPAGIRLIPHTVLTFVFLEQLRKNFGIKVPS
Assay: affinity purification with mass spectrometry; IP with anti-SLC25A10 antibody (control IgG) from PC-3 and 22RV1 lysates in RIPA buffer, protein A/G magnetic beads, 4 °C overnight; eluates by SDS-PAGE and Orbitrap mass spectrometry

binding: binds
Substance: SQSTM1 (p62), endogenous (from UniProt Q13501 1-440)
